Taken from: PubChem BioAssay AID1159594 (NIAID, 2016)
In all, the deposit lists 756 reagents; this is a part drawn at random. 130 of them (17%) were called active. 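Active calls cover both falls and rises of reporter activity; each row reflects one siRNA, not a gene-level verdict.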 Reagents against one gene are numbered here. The record does not give: the amount of reagent.

Test: 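Which core toll-like receptor signalling genes are needed for TNF promoter activation by Pam2CSK4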
Cells: human THP-1 B5 reporter cells, PMA-differentiated into macrophage-like cells
Reagents: single siRNA against human genes
Time to read-out: 48 to 72 hours after siRNA transfection; ligand exposure 4 hours
Conditions: Pam2CSK4 (TLR2/6 agonist) stimulation for 4 hours before lysis; dose not given
Detection: 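Robust z-score, relative to negative controls, of the firefly/renilla ratio from a TNF promoter reporter, after per-plate median/MAD scaling, mean of replicate screens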
Direction: TNF reporter z-score: higher = stronger TNF promoter reporter activity
Hit rule: 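The depositor sorts siRNAs into z-score bands with cut-offs of 2.5, 2, 1.5 and 1; grade 50 and above, meaning |z| of 1.5 or more, counts as active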
Meaning of the calls: active = z-score beyond ±1.5 (either direction); inactive = z-score within ±1.5

LY96 #1
- TNF reporter z-score, replicate mean: -0.174
- activity call: inactive

LY96 #2
- TNF reporter z-score, replicate mean: -0.0858
- activity call: inactive

LY96 #3
- TNF reporter z-score, replicate mean: 0.451
- activity call: inactive

LY96 #4
- TNF reporter z-score, replicate mean: -1.39
- activity call: inactive

LY96 #5
- TNF reporter z-score, replicate mean: -0.491
- activity call: inactive

LY96 #6
- TNF reporter z-score, replicate mean: -0.248
- activity call: inactive

ELK4 #1
- TNF reporter z-score, replicate mean: -0.535
- activity call: inactive

ELK4 #2
- TNF reporter z-score, replicate mean: -1.22
- activity call: inactive

ELK4 #3
- TNF reporter z-score, replicate mean: -0.43
- activity call: inactive

ELK4 #4
- TNF reporter z-score, replicate mean: -0.618
- activity call: inactive

ELK4 #5
- TNF reporter z-score, replicate mean: -0.313
- activity call: inactive

ELK4 #6
- TNF reporter z-score, replicate mean: -0.577
- activity call: inactive

IRF9 #1
- TNF reporter z-score, replicate mean: -0.596
- activity call: inactive

IRF9 #2
- TNF reporter z-score, replicate mean: -0.24
- activity call: inactive

IRF9 #3
- TNF reporter z-score, replicate mean: -0.705
- activity call: inactive

IRF9 #4
- TNF reporter z-score, replicate mean: -2.23
- activity call: active

IRF9 #5
- TNF reporter z-score, replicate mean: -0.643
- activity call: inactive

IRF9 #6
- TNF reporter z-score, replicate mean: -0.822
- activity call: inactive

CHUK #1
- TNF reporter z-score, replicate mean: -1.1
- activity call: inactive

CHUK #2
- TNF reporter z-score, replicate mean: -0.269
- activity call: inactive

CHUK #3
- TNF reporter z-score, replicate mean: -0.16
- activity call: inactive

CHUK #4
- TNF reporter z-score, replicate mean: -0.46
- activity call: inactive

CHUK #5
- TNF reporter z-score, replicate mean: -0.767
- activity call: inactive

CHUK #6
- TNF reporter z-score, replicate mean: 0.00306
- activity call: inactive

IL6 #1
- TNF reporter z-score, replicate mean: 0.829
- activity call: inactive

IL6 #2
- TNF reporter z-score, replicate mean: -0.481
- activity call: inactive

IL6 #3
- TNF reporter z-score, replicate mean: -1.48
- activity call: inactive

IL6 #4
- TNF reporter z-score, replicate mean: -0.106
- activity call: inactive

IL6 #5
- TNF reporter z-score, replicate mean: -0.697
- activity call: inactive

IL6 #6
- TNF reporter z-score, replicate mean: -0.2
- activity call: inactive

IRF7 #1
- TNF reporter z-score, replicate mean: -1.04
- activity call: inactive

IRF7 #2
- TNF reporter z-score, replicate mean: -1.57
- activity call: active

IRF7 #3
- TNF reporter z-score, replicate mean: -0.843
- activity call: inactive

IRF7 #4
- TNF reporter z-score, replicate mean: -0.615
- activity call: inactive

IRF7 #5
- TNF reporter z-score, replicate mean: -1.77
- activity call: active

IRF7 #6
- TNF reporter z-score, replicate mean: -1.21
- activity call: inactive

MAP3K14 #1
- TNF reporter z-score, replicate mean: 1.29
- activity call: inactive

MAP3K14 #2
- TNF reporter z-score, replicate mean: -0.0875
- activity call: inactive

MAP3K14 #3
- TNF reporter z-score, replicate mean: 0.693
- activity call: inactive

MAP3K14 #4
- TNF reporter z-score, replicate mean: -0.204
- activity call: inactive

MAP3K14 #5
- TNF reporter z-score, replicate mean: -0.137
- activity call: inactive

MAP3K14 #6
- TNF reporter z-score, replicate mean: -1.47
- activity call: inactive

IFNB1 #1
- TNF reporter z-score, replicate mean: -0.95
- activity call: inactive

IFNB1 #2
- TNF reporter z-score, replicate mean: -0.0518
- activity call: inactive

IFNB1 #3
- TNF reporter z-score, replicate mean: -0.138
- activity call: inactive

IFNB1 #4
- TNF reporter z-score, replicate mean: 0.104
- activity call: inactive

IFNB1 #5
- TNF reporter z-score, replicate mean: -1.71
- activity call: active

IFNB1 #6
- TNF reporter z-score, replicate mean: -1.77
- activity call: active
